Measurements as given in PMC8397841.
No constants are given. Whether binding was seen depends on the method and setting. In cells and extracts the contact can be indirect. Some entries that bind do so weakly or less than the wild type. For part of these data: Sequences can lack the tags named with a protein.

By UniProt entry, the sequences of proteins in these tests, tags left out. Residues count along the entry.
UniProt P29317, residues 24-976: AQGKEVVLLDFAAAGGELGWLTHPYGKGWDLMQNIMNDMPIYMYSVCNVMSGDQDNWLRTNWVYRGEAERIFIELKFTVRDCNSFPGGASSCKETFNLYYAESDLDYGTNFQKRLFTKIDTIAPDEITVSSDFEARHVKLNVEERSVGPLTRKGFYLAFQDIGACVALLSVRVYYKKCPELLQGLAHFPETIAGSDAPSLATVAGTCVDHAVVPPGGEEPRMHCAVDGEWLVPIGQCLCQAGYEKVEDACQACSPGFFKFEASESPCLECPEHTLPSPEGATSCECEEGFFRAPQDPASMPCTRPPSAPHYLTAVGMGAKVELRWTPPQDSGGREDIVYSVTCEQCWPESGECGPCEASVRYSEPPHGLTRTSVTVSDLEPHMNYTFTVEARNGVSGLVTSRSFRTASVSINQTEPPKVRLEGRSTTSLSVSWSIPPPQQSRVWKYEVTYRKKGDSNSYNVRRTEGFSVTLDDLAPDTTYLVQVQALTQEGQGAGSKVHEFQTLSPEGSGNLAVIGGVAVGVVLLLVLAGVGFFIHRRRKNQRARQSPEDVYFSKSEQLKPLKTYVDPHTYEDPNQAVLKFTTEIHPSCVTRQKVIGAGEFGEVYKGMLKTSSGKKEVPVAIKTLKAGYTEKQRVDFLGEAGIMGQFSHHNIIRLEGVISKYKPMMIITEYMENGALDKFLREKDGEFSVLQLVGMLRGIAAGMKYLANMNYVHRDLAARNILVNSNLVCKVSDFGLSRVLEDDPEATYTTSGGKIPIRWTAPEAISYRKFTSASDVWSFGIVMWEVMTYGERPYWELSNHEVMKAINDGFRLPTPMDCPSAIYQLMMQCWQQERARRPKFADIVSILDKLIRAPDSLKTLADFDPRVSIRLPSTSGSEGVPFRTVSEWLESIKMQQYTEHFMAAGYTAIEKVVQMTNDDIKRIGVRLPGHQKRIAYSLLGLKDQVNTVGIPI
UniProt O00459: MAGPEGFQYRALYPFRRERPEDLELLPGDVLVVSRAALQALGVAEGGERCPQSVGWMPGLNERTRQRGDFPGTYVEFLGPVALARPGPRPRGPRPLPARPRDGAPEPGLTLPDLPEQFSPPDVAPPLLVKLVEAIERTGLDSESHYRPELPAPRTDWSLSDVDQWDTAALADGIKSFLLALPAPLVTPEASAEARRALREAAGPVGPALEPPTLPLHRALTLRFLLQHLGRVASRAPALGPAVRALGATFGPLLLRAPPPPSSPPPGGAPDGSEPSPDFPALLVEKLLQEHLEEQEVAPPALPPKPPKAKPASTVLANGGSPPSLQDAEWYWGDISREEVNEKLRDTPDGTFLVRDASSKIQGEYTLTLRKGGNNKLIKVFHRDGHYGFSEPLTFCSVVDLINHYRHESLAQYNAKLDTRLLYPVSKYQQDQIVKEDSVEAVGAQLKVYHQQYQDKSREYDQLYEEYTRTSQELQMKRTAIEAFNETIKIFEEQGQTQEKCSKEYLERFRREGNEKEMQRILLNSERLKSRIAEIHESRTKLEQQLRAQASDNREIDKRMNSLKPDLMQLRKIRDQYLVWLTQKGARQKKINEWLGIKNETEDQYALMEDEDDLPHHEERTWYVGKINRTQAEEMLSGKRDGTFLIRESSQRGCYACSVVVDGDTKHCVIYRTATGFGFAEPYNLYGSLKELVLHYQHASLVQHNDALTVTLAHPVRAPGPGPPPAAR

Columns and labels:
[1] = target: T1, Ephrin A4 (EFNA4), FLAG-tagged (UniProt P52798); test: co-IP; Hep3B cell lysates (EFNA4 overexpressed); antibody against FLAG-EFNA4, EPHA2 or PIK3R2; Pierce Co-Immunoprecipitation Kit; immune complexes analysed by western blotting
T1 sequence: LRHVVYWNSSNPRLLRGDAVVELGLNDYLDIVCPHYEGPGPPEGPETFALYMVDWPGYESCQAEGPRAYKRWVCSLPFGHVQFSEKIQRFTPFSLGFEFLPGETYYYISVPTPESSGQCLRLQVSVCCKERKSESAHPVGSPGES

[2] = target: EPHA2 receptor (human (endogenous in Hep3B)) (UniProt P29317); test: as above

Row | binding [1] | binding [2] | Substance
1 | binds |  | EPHA2 receptor (from UniProt P29317 24-976)
2 | binds | binds | phosphoinositide-3-kinase regulatory subunit 2 (PIK3R2) (from UniProt O00459 1-728)
